Measured data: PubChem BioAssay AID1508588 (Peter MacCallum Cancer Centre, 2020)
Shown is one part, drawn at random, of about 18,000 reagents. 790 of them (4.4%) count as active. 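Calls rest on a combination of fold-change classes in drug and vehicle arms, not all shown here.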 A number with no mark means an inactive call.

Test: 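Knock-downs boosting vemurafenib effects on melanoma cell growth or lactate release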 (primary screen)
Cell system: human WM266.4 melanoma cells (BRAF V600 mutant)
Knock-down reagent: siRNA pool against human genes, 40 nM
Timing: 96 h from transfection to read-out
Challenge: vemurafenib 300 nM (about IC25), added 48 h after transfection, for 48 h; comparison arm got DMSO vehicle only
Detection: 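Ratios to non-targeting siRNA for cell gain, counted as DAPI nuclei after minus before drug and averaged over two replicates, and for absorbance-read medium lactate per cell; both binned into fold-change classes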
Reading the numbers: cell gain with vemurafenib: higher = more cell gain than with non-targeting siRNA; lactate per cell with vemurafenib: higher = more lactate made per cell
Rule for the call: 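a knock-down counts as enhancing when its fold-change classes with vehicle and with vemurafenib, taken together, show a stronger drug effect on cell gain or lactate per cell; exact class pairs not stated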
Calls: active = enhances vemurafenib effect; inactive = no enhancement seen

With OR5M11, what does the deposit list?
cell gain with vemurafenib: 0.41; lactate per cell with vemurafenib: 1.37

Which result is listed for TBK1?
cell gain with vemurafenib: 0.99; lactate per cell with vemurafenib: 0.54

With WNT5A, what was measured?
cell gain with vemurafenib: 0.39; lactate per cell with vemurafenib: 1.49

What is on record for RCAN1?
cell gain with vemurafenib: 0.5; lactate per cell with vemurafenib: 0.66

For TOM1L1, what was measured?
cell gain with vemurafenib: 1.08; lactate per cell with vemurafenib: 0.68

With CXCL10, what does the deposit list?
cell gain with vemurafenib: 0.72 (active); lactate per cell with vemurafenib: 0.49

For GPR161, what does the deposit list?
cell gain with vemurafenib: 0.25; lactate per cell with vemurafenib: 1.26

What is on record for FBXL13?
cell gain with vemurafenib: 0.69; lactate per cell with vemurafenib: 0.97

For RALB, how do the results read?
cell gain with vemurafenib: 0.47; lactate per cell with vemurafenib: 0.92

What did the screen give for SSUH2?
cell gain with vemurafenib: 0.97; lactate per cell with vemurafenib: 0.78

For SOX2, how do the results read?
cell gain with vemurafenib: 0.68; lactate per cell with vemurafenib: 0.74

For SLC7A3, how do the results read?
cell gain with vemurafenib: 1.15; lactate per cell with vemurafenib: 0.63

For ASRGL1, how do the results read?
cell gain with vemurafenib: 0.82; lactate per cell with vemurafenib: 0.95

How did the screen score PHF20?
cell gain with vemurafenib: 1.07; lactate per cell with vemurafenib: 0.68

With AK5, what does the deposit list?
cell gain with vemurafenib: 0.73; lactate per cell with vemurafenib: 1.06

How did the screen score F2RL3?
cell gain with vemurafenib: 0.84; lactate per cell with vemurafenib: 1.77

What is on record for CNOT10?
cell gain with vemurafenib: 0.6; lactate per cell with vemurafenib: 0.54

With ZNF484, what was measured?
cell gain with vemurafenib: -0.16; lactate per cell with vemurafenib: 2.84

What did the screen give for RAMP2?
cell gain with vemurafenib: 0.96; lactate per cell with vemurafenib: 0.74

How did the screen score ACOX2?
cell gain with vemurafenib: 0.35; lactate per cell with vemurafenib: 1.04

What is on record for GPHB5?
cell gain with vemurafenib: 0.67; lactate per cell with vemurafenib: 0.4

With IRX2-DT, what was measured?
cell gain with vemurafenib: 0.6; lactate per cell with vemurafenib: 0.84

With SLC30A7, what was measured?
cell gain with vemurafenib: 0.53; lactate per cell with vemurafenib: 1.02

For D2HGDH, how do the results read?
cell gain with vemurafenib: 0.42; lactate per cell with vemurafenib: 0.98

Which result is listed for PRSS36?
cell gain with vemurafenib: 0.86; lactate per cell with vemurafenib: 0.86

What is on record for ACOT9?
cell gain with vemurafenib: 0.68; lactate per cell with vemurafenib: 1.04

With GALNTL5, what does the deposit list?
cell gain with vemurafenib: 0.69; lactate per cell with vemurafenib: 1.27

Sorted by “cell gain with vemurafenib” (highest first): 4 of the entries above
SLC7A3 | cell gain with vemurafenib: 1.15; lactate per cell with vemurafenib: 0.63
SSUH2 | cell gain with vemurafenib: 0.97; lactate per cell with vemurafenib: 0.78
ASRGL1 | cell gain with vemurafenib: 0.82; lactate per cell with vemurafenib: 0.95
SOX2 | cell gain with vemurafenib: 0.68; lactate per cell with vemurafenib: 0.74

Further records:
What did the screen give for LTA?
cell gain with vemurafenib: 0.68; lactate per cell with vemurafenib: 0.6

With MLST8, what does the deposit list?
cell gain with vemurafenib: 0.43; lactate per cell with vemurafenib: 0.72

For RAPGEFL1, how do the results read?
cell gain with vemurafenib: 0.69; lactate per cell with vemurafenib: 1

With NR1D1, what was measured?
cell gain with vemurafenib: 0.62; lactate per cell with vemurafenib: 0.11

What did the screen give for KRTAP19-1?
cell gain with vemurafenib: 0.71; lactate per cell with vemurafenib: 0.96

How did the screen score LSS?
cell gain with vemurafenib: 0.26; lactate per cell with vemurafenib: 1.86

With NMUR1, what was measured?
cell gain with vemurafenib: 0.77; lactate per cell with vemurafenib: 0.66

With WWTR1, how do the results read?
cell gain with vemurafenib: 0.67; lactate per cell with vemurafenib: 0.43

How did the screen score GPR65?
cell gain with vemurafenib: 0.61; lactate per cell with vemurafenib: 0.56

What did the screen give for FXN?
cell gain with vemurafenib: 1.01; lactate per cell with vemurafenib: 1.01

What did the screen give for GPCPD1?
cell gain with vemurafenib: 0.26; lactate per cell with vemurafenib: 2.62

What did the screen give for KRT77?
cell gain with vemurafenib: 0.99; lactate per cell with vemurafenib: 0.9

How did the screen score SOS1?
cell gain with vemurafenib: 0.39; lactate per cell with vemurafenib: 1.33

What did the screen give for INTS6L?
cell gain with vemurafenib: 0.36; lactate per cell with vemurafenib: 1.26

Which result is listed for RAD51AP1?
cell gain with vemurafenib: 0.78; lactate per cell with vemurafenib: 0.21

With CLEC1B, how do the results read?
cell gain with vemurafenib: 0.63; lactate per cell with vemurafenib: 1.23

For RFK, what was measured?
cell gain with vemurafenib: 0.69; lactate per cell with vemurafenib: 1.15

With ADGRV1, how do the results read?
cell gain with vemurafenib: 0.93; lactate per cell with vemurafenib: 0.57

For NOP2, what does the deposit list?
cell gain with vemurafenib: 0.09; lactate per cell with vemurafenib: 1.59

Which result is listed for OAZ3?
cell gain with vemurafenib: 0.29; lactate per cell with vemurafenib: 0.55

What did the screen give for WTIP?
cell gain with vemurafenib: 0.72; lactate per cell with vemurafenib: 0.52

For NMT1, what was measured?
cell gain with vemurafenib: 1.16; lactate per cell with vemurafenib: 0.88

How did the screen score NUDT1?
cell gain with vemurafenib: 0.41; lactate per cell with vemurafenib: 0.68

How did the screen score KRTAP12-3?
cell gain with vemurafenib: 0.81; lactate per cell with vemurafenib: 0.56

For TGFB1I1, what was measured?
cell gain with vemurafenib: 0.32; lactate per cell with vemurafenib: 1.28
